Test results taken from PMC4924846.
Changes are numbered by the printed parent chain. These are yes or no findings as the source states them, for the method shown. In cells and extracts the contact can be indirect. Some results given as binding are weak or reduced against the parent protein; the word gives no strength. Where a sequence is shown, tags or fusion partners need not be part of it.

Columns and labels:
[1] = target: T1, LL/AA mutant of C-terminal Myc-tagged human Organic Solute Transporter beta (human) (UniProt Q86UW2); experiment: co-IP; HEK293 cells co-transfected with OSTβ-Myc (WT or LL/AA) and OSTα-Flag; lysed in M-PER with protease inhibitors; anti-Myc antibody overnight at 4°C, protein A/G beads; blot with anti-Flag and anti-Myc
T1 sequence: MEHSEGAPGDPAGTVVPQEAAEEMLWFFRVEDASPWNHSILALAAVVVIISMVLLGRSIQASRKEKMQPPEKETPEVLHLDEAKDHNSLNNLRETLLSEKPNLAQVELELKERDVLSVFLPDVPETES

[2] = target: T2, C-terminal Myc-tagged wild-type human Organic Solute Transporter beta (human) (UniProt Q86UW2); experiment: as above
T2 sequence: T1 sequence with A20L, A21L

B1: C-terminal Flag-tagged wild-type human Organic Solute Transporter alpha (protein, UniProt Q86UW1 1-340)
chain: MEPGRTQIKLDPRYTADLLEVLKTNYGIPSACFSQPPTAAQLLRALGPVELALTSILTLLALGSIAIFLEDAVYLYKNTLCPIKRRTLLWKSSAPTVVSVLCCFGLWIPRSLVLVEMTITSFYAVCFYLLMLVMVEGFGGKEAVLRTLRDTPMMVHTGPCCCCCPCCPRLLLTRKKLQLLMLGPFQYAFLKITLTLVGLFLVPDGIYDPADISEGSTALWINTFLGVSTLLALWTLGIISRQARLHLGEQNMGAKFALFQVLLILTALQPSIFSVLANGGQIACSPPYSSKTRSQVMNCHLLILETFLMTVLTRMYYRRKDHKVGYETFSSPDLDLNLKA
[1]
  binding: binds weakly
[2]
  binding: binds
